According to PubChem BioAssay AID1508615 (Milbrandt Lab, Department of Genetics, Washington …, 2020):
About 20 (1%) of roughly 1,600 compounds were called active.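 Rule for the calls: active = ratio of uncleaved NAD to its breakdown product ADP-ribose above 4, meaning the enzyme was inhibited; inactive = the rest.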 This is one part of the list.

Amino acid sequences for entries named in this document (tags omitted). A change or cut given only in a name is not applied to a line headed by its entry.
UniProt Q6SZW1: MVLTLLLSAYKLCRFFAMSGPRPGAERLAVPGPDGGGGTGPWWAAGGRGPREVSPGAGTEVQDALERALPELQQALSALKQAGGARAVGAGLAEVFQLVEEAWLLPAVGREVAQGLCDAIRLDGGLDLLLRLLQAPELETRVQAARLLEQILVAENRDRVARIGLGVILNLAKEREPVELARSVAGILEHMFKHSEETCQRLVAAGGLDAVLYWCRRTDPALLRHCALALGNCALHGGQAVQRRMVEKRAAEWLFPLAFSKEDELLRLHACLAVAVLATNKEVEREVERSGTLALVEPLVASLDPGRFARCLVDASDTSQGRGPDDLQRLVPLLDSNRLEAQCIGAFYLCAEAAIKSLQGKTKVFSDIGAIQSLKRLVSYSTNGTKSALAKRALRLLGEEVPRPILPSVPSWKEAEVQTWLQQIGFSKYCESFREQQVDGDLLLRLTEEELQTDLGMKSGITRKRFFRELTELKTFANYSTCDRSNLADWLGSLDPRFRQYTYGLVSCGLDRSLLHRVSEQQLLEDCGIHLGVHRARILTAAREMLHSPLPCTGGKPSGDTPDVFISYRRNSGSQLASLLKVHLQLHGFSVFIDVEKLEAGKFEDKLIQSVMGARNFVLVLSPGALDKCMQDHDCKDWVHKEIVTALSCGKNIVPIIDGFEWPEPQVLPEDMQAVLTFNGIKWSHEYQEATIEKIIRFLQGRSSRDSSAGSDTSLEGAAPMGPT

Each compound was assayed against NAD(+) hydrolase SARM1 (Homo sapiens) (UniProt Q6SZW1) (assay: SARM1 TIR NADase inhibitors by HPLC, primary screen, cell lysate, HPLC readout (AID 1508615;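 note: substrate NAD at 5 µM with 60 min at 37 °C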)). Conditions: HEK293T SAM-TIR lysate, at 5 µM, hits give high values.

Row | SMILES | NAD/ADPR ratio
1 | O=C(O)c1cc2cc(OCc3ccccc3)ccc2[nH]1 | inactive: 3
2 | COc1cc(O)c(C(=O)/C=C/c2ccccc2)c(OC)c1 | inactive: 3
3 | O=c1cc(-c2nn[nH]n2)[nH]c(=O)[nH]1 | inactive: 3
4 | CC(=O)Oc1ccc(C(c2ccc(OC(C)=O)cc2)c2ccccn2)cc1 | inactive: 3
5 | CC(C)Oc1ccc(C(=O)O)cc1 | inactive: 3
6 | c1ccc2c(c1)Nc1cc3ccccc3cc1S2 | inactive: 3
7 | O=c1[nH]cnc2c1ncn2Cc1ccc([N+](=O)[O-])cc1 | inactive: 3
8 | CC1CCCC(CC(=O)O)(CC(=O)O)C1 (configuration not stated) | inactive: 3
9 | CCOC(=O)Nc1c(Cl)n(C)c(=O)n(C)c1=O | inactive: 3
10 | C=CCNC(=S)NCC | inactive: 3
11 | CCOC(=O)C1(C#N)C(=O)CSC1=Nc1ccccc1Cl (configuration not stated) | inactive: 3
12 | CSc1nc(Cl)c(Br)c(Nc2c[nH]c(=O)[nH]c2=O)n1 | inactive: 3
13 | Cc1ccc(NC(=O)N2CCCCC2)cc1[N+](=O)[O-] | inactive: 3
14 | CSc1n[nH]c(-c2cccs2)n1 | inactive: 3
15 | CCC(=Cc1ccc(CC)cn1)CC | inactive: 3
16 | Cn1ncc2c(Sc3ccc(Cl)cc3)ncnc21 | inactive: 3
17 | Nc1ccccc1-n1nc2ccc3ccccc3c2n1 | inactive: 3
18 | Cn1ncc2c(Nc3ccc(Br)cc3)nc(Nc3ccc(Br)cc3)nc21 | inactive: 3
19 | CN1CCN(C(=O)Nc2ccc([N+](=O)[O-])cc2)CC1 | inactive: 3
20 | O=C(c1ccccc1)c1ccc(Sc2ccc([N+](=O)[O-])cc2)cc1 | inactive: 3
21 | Cc1cccc(C)c1NC(=O)NCc1ccco1 | inactive: 3
22 | CN(C)c1ccc(/C=C2/C=C(c3ccc4c(c3)CCCC4)OC2=O)cc1 | inactive: 3
23 | C1CCC(NC2=NCCO2)CC1 | inactive: 3
24 | Cc1nc(Nc2ccc(F)cc2)nc(Nc2ccc(F)cc2)c1[N+](=O)[O-] | inactive: 3
25 | C=CCN=C(NC#N)SC | inactive: 3
26 | CC(C)CNC(=O)/C=C/C(=O)O | inactive: 3

Row | SMILES | NAD/ADPR ratio
27 | Cc1ccc(S(=O)(=O)NNC(=O)C23CCC(CC2)C3)cc1 | inactive: 3
28 | COc1ccc2c(C)cc(C)nc2n1 | inactive: 3
29 | CC(C)(C)C(=O)Nc1ccc(NC(=O)C(C)(C)C)cc1 | inactive: 3
30 | Cc1nc(N)nc(Cl)c1CCC1OCCO1 | inactive: 3
31 | CCC(=O)C=Cc1ccc(N(C)C)cc1 | inactive: 3
32 | CCOC(=O)c1[nH]c(CO)c(C(=O)OCC)c1C | inactive: 3
33 | CCCOc1ccc(-c2nc(-c3ccc(N)cc3)cs2)cc1 | inactive: 3
34 | COC(=O)c1cc(C)c(C)cc1NC1OC(CO)C(O)C1O (configuration not stated) | inactive: 3
35 | COC(=O)C1=C(C)NC(C)=C(C(=O)OC)C(N2C(=O)CCC2=O)C1 (configuration not stated) | inactive: 3
36 | Cc1c(O)ccc2c(O)c(NC(=O)c3ccc4c(c3)CCC(C)(C)O4)c(=O)oc12 | inactive: 3
37 | O=C(Nc1nnc(C(F)(F)F)s1)c1c(F)cccc1F | inactive: 3
38 | CN1C=C/C(=C\[N+](=O)[O-])N(C)C1=O | inactive: 3
39 | CN(C)CCC1c2ccc(Cl)cc2CCc2cccnc21 (configuration not stated) (tested in a mixture with another compound) | inactive: 3
40 | CN1C(=O)c2ccccc2Cc2c(NCc3ccccc3)ncnc21 | inactive: 3
41 | Nc1nc(N)c(N=Nc2ccc(S(N)(=O)=O)cc2)c(=O)[nH]1 | inactive: 3
42 | O=C(Nc1ccccc1)C1=C(Nc2ccccc2)CSC1 | inactive: 3
43 | O=c1cc[nH]c2c(Cl)cccc12 | inactive: 3
44 | CC(C)(C)C1=NN=C2c3ccccc3C(=O)C21 (configuration not stated) | inactive: 3
45 | CN(C)Cc1c[nH]c2nccnc12 | inactive: 3
46 | Cc1c(O)cnc2nn(-c3ccccc3)c(=N)n12 | inactive: 3
47 | Brc1csc2ncccc12 | inactive: 3
48 | c1ccc(-c2nc3ccccc3s2)nc1 | inactive: 3
49 | C1CCc2nc3c(nc2C1)CCCC3 | inactive: 3
50 | O=[N+]([O-])c1ccc(Sc2ncccn2)c([N+](=O)[O-])c1 | inactive: 3
51 | COc1cc(/C=C2\CCOC2=O)cc(OC)c1OC | inactive: 3
52 | Cn1c(=O)c2c(nc(OCCc3ccccc3)n2C)n(C)c1=O | inactive: 3

Copied from the list.
For NAD/ADPR ratio, `CN1C(=O)c2ccccc2Cc2c(NCc3ccccc3)ncnc21` reads inactive: 3
For NAD/ADPR ratio, `Cc1c(O)ccc2c(O)c(NC(=O)c3ccc4c(c3)CCC(C)(C)O4)c(=O)oc12` reads inactive: 3
For NAD/ADPR ratio, `c1ccc(-c2nc3ccccc3s2)nc1` reads inactive: 3

Next records follow:

Row | SMILES | NAD/ADPR ratio
53 | COC1OC2COC(c3ccccc3)OC2C(=O)C1NC(=O)c1ccccc1 (configuration not stated) | inactive: 3
54 | CNC(=O)OCN1C(=O)C2CC=CCC2C1=O (configuration not stated) | inactive: 3
55 | Cc1ccc(NC(=O)N2CCN(C)CC2)cc1NC(=O)N1CCN(C)CC1 | inactive: 3
56 | Cn1c(=O)c2c(ncn2CCOC(=O)C(C)(C)Oc2ccc(Cl)cc2)n(C)c1=O | inactive: 3
57 | O=c1cc(-c2ccc(Cl)cc2)[nH]c2ccccc12 | inactive: 3
58 | Cc1c(Cc2ccccc2)[n+](=O)c2ccccc2n1[O-] | inactive: 3
59 | Cc1ccc2c(c1)c1ccc3c(c1n2C)C(=O)C=CC3=O | active: 5.6
60 | Cc1nc2ccc(Cl)cn2c1[N+](=O)[O-] | inactive: 3
61 | Cc1cc(C)n(C(N)=NC(=O)c2ccccc2)n1 | inactive: 3
62 | Cc1ccc2c(c1)sc1nncn12 | inactive: 3
63 | Cc1cc(=O)c2c(o1)C(=O)c1occc1C2=O | inactive: 3
64 | CN1CCC(=C2c3ccccc3C(O)c3ccccc32)CC1 (configuration not stated) | inactive: 3
65 | c1ccc(NCCSc2nc3ccccc3s2)cc1 | inactive: 3
66 | CCN(CC)c1ccc(/C=C/c2cc(-c3ccccc3)c3ccccc3n2)cc1 | inactive: 3
67 | c1ccc2nc(NN=C3CCCCC3)ccc2c1 | inactive: 3
68 | CCOc1ccc(NC(=O)Nc2cc(C(C)C)c(O)cc2C)cc1 | inactive: 3
69 | C#CCNc1ccc(C(=O)OCC)cc1 | inactive: 3
70 | O=C1C=C(c2ccccc2)OC(=O)C1C(=O)c1ccccc1 (configuration not stated) | inactive: 3
71 | CNc1ncn(-c2c(C)cccc2C)c(=O)n1 | inactive: 3
72 | O=[N+]([O-])c1cc(F)c2cccnc2c1O | inactive: 3
73 | Nc1cc2c3c(cccc3c1)C(=O)N(CCN1CCCC1)C2=O | inactive: 3
74 | Cc1ccc(S(=O)(=O)N2CC=C(N)N2)cc1 | inactive: 3
75 | COc1ccc(-c2cc(-c3ccccc3)c(-c3ccccc3)nn2)cc1 | inactive: 3
76 | Cc1ccncc1C(N)=O | inactive: 3
77 | CCOC(=O)c1csc(-c2ccc(COC(=O)c3ccccc3)o2)n1 | inactive: 3
